Consider five compounds from PubChem BioAssay AID1259415 (National Center for Advancing Translational Sciences (NCATS), 2018).

SMILES strings stand for the structures. Only a part is listed here, and it is no random draw. Results filed as inconclusive are left out. Activity calls are given as the source filed them. Rule as the data show it: active = activity change below about -60%; inconclusive = no clear call, values can overlap the other calls; inactive = above about -39%.
% is scaled to controls: 0 for no effect and ±100 for the full control effect.

The assay can be described thus: qHTS Assay for inhibitors of the human cytomegalovirus (HCMV). The settings on record: HFF cells, HCMV-luciferase reporter, 72 h; at 57.5 µM; active compounds read low. From the text:
NCGC Assay Overview: Infection with human cytomegalovirus (HCMV) continues to pose significant threats for pregnant women and immunocompromised hosts. HCMV causes serious morbidity and mortality in transplant recipients, and congenital HCMV is the leading infectious cause of mental retardation and deafness in children. In the 1990s, the annual costs associated with the disease burden of congenital CMV were estimated at around $2 billion. A HCMV vaccine is not available yet and HCMV therapies result in intolerable side effects and emergence of drug resistant viruses. […] Towards this goal we have developed and characterized a luciferase HCMV reporter that was initially used in 96 well plates and then optimized to 1536-well plates for utilization in screening of the MLSMR collection, the NGCG diversity collection and the NCGC Pharmaceutical Collection of approved and investigational drugs.
NCGC Assay Protocol Summary:
This is a cell-based assay for HCMV inhibition in HFFs cells. The screening used 2 compound doses and the HCMV-luciferase at MOI of 1 PFU/cell. Cells were treated and infected with HCMV. At 72 h post infection cell lysates were collected and luciferase activity was determined using the Glomax-Multi + Detection System (Promega, Madison, WI). Data were normalized to the controls for basal activity (buffer only) and known HCMV inhibitors Salinmoycin.
1536-well assay protocol for the assay:
(1) Add 3 ul CMV/HFF cell culture. 1000 cells/well in DMEM nirmal media.
(2) Incubate 16 hr at 37C.
(3) Add 23 nl control compound, 10uM of Salinomycin.
(4) Add 23 nl compounds in DMSO solution.
(5) Add 3 ul CMV suspension. Final 1 puf/ul, Virus stock 2000pfu/ul
(6) Incubate 72 hrs at 37C.
(7) Add 4 ul OneGlo Luc Reagent.
(8) Incubate 5 min at room temperature.
Regarding `CC(C)(C)c1ccc(-n2ncc3c2CCCC3NC(=O)CCN2CCCC2=O)cc1` (stereo not given), the activity change, negative = inhibition is active: -67.2%.
As to `COc1ccccc1C(=O)NNC(=S)NC(=O)c1ccco1`, the activity change, negative = inhibition is active: -81.9%.
Regarding `O=C(CCCCCCC(=O)Nc1ccccc1)NO`, the activity change, negative = inhibition was active: -76.4%.
On to `CN1CCN(C(=O)COc2ccc(-c3nc4ccccc4s3)cc2)CC1`, for which the activity change, negative = inhibition was active: -67.3%.
Regarding `CN(C)C(=O)c1cccc(COc2ccc(N3C(N)=NC(N)=NC3(C)C)cc2Cl)c1`, the activity change, negative = inhibition was active: -101%.
